Laboratory results reported in PMC9450312.
Results are given in words; binding and its absence hold for the method and conditions named. In cells and extracts the contact can be indirect. Some binding calls cover weakened binding; strength is not graded here.

Sequences of proteins named here, by UniProt entry; tags and fusion partners are left off.
UniProt P35222: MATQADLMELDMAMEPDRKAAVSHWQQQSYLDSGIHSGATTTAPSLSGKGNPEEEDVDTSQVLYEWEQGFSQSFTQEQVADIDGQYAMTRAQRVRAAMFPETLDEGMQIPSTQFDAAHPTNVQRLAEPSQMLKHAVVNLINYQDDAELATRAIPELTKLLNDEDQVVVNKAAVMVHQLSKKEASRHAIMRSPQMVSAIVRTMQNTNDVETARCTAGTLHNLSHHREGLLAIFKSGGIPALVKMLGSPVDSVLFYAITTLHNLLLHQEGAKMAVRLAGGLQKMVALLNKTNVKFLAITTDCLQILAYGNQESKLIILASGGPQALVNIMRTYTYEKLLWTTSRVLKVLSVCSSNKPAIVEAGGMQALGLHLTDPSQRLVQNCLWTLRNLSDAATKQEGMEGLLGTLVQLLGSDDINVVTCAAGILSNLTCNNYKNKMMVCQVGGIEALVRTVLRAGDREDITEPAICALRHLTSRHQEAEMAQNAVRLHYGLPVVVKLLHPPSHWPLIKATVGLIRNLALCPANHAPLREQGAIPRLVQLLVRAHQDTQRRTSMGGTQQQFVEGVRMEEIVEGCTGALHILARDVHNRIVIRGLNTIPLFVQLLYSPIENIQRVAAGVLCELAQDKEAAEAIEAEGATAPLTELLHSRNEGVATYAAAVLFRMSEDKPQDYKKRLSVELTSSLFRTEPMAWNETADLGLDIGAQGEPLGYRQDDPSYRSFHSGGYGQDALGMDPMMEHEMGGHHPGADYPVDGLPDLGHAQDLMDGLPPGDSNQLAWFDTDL
UniProt P17302: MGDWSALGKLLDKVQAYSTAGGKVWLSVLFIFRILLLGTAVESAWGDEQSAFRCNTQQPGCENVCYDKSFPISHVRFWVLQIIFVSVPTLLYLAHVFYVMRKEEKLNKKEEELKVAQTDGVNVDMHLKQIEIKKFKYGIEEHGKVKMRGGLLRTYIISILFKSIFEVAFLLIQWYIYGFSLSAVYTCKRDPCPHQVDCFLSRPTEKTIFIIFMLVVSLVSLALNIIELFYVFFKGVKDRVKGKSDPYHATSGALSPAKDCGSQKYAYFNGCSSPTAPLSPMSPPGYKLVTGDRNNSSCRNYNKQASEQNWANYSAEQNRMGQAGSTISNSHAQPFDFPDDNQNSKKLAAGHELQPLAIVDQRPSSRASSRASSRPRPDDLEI

Target: β-catenin (human (endogenous in hPDLSCs)) (UniProt P35222)
Assay: co-IP; hPDLSC lysate incubated overnight with 2.5 µg rabbit anti-β-catenin antibody, Protein A/G Plus magnetic beads overnight at 4 °C; western blotting

In the case of Connexin43 (from UniProt P17302 1-382), the binding is reported as “binds”.
